These are yes or no findings as the source states them, for the method shown. Binding seen in cells or lysates may run through a third protein. Some binding calls cover weakened binding; strength is not graded here.
Target: T1, LpCat1 (lysophosphatidylcholine acyltransferase 1) (human) (UniProt Q8NF37)
T1 sequence: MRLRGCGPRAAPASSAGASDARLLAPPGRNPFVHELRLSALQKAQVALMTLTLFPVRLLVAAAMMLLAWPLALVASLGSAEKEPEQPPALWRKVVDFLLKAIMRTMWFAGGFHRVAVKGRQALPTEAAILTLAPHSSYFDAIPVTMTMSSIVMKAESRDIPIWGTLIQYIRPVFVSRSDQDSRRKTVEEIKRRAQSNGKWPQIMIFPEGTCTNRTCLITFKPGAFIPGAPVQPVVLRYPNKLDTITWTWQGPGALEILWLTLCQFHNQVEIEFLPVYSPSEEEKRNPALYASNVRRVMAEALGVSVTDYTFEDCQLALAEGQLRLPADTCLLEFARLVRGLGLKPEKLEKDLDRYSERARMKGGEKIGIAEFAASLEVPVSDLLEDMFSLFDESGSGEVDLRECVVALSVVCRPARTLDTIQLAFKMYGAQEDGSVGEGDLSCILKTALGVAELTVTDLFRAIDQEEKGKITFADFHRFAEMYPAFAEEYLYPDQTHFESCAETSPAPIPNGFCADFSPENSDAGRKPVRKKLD
Experiment: co-IP; lysates (IP lysis buffer) of HCC cells (Hep3B, Huh7) with LpCat1 overexpression or negative control vector incubated with anti-LpCat1 and anti-STAT1 antibodies separately overnight at 4 C; Protein A/G-agarose beads 2 h; western blotting

By UniProt entry, the sequences of proteins in these tests, tags left out.
UniProt P42224: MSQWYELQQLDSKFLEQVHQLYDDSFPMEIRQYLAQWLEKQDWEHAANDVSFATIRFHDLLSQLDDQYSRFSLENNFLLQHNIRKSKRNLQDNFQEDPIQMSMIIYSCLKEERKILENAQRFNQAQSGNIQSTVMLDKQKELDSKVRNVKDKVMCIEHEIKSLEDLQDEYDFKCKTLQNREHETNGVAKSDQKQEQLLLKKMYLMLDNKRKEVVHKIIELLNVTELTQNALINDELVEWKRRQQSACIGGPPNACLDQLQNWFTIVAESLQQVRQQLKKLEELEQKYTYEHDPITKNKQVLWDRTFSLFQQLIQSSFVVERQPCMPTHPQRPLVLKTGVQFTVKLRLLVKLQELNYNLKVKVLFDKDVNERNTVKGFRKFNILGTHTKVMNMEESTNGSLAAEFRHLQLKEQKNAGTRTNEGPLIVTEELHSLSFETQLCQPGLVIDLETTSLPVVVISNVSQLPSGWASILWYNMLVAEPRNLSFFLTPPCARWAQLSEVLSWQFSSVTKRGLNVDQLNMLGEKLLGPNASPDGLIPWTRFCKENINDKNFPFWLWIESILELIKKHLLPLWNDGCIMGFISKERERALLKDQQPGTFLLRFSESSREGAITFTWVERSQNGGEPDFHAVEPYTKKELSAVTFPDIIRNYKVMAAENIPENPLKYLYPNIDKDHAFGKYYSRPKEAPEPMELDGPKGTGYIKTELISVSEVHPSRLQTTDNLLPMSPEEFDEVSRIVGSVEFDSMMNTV

STAT1 (from UniProt P42224 1-750) was tested, and the binding was “binds”.

From publication PMC8220817
